Experimental data as given in patent US20250182853A1.
Results are given in words; binding and its absence hold for the method and conditions named. Some binding calls cover weakened binding; strength is not graded here.

The chains behind the UniProt entries cited, without tags or fusion partners. Residues count along the entry.
UniProt P17931: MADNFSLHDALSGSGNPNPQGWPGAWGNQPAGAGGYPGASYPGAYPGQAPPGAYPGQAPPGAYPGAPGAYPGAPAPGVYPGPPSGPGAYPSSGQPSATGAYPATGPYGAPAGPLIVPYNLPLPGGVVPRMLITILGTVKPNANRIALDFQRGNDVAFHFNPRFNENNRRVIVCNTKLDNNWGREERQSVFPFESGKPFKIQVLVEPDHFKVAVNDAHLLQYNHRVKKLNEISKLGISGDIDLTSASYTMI
UniProt P02701, residues 25-152: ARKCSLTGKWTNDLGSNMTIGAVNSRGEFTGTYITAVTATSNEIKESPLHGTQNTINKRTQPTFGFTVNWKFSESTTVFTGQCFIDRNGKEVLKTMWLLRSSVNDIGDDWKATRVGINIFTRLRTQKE

Key:
Galectin-3 [1] = target: Galectin-3 (UniProt P17931); assay: ELISA, purified monomer on Galectin-3 immobilized via NeutrAvidin
Galectin-3 [2] = target: Galectin-3 (UniProt P17931); assay: monoclonal phage ELISA, mutant displayed on M13 phage
NeutrAvidin = NeutrAvidin (UniProt P02701); assay: ELISA, purified monomer on wells with NeutrAvidin only

| binding (Galectin-3 [1]) | binding (Galectin-3 [2]) | binding (NeutrAvidin) | Binder |
| --- | --- | --- | --- |
| binds |  |  | 1E2 mutant (2u2f mutant from Cluster 1) (designed binder) AHKLFIGGLPVDYNDDQVKELLTSFGPLKAFNLVKDSATGLSKGYAFAEYVDINVTDQAIAGLNGNVCHLHTLLVQRASVGAKNADYKDDDDKLEHHHHHH |
| binds |  |  | 3B5 mutant (2u2f mutant from Cluster 3) (designed binder) AHKLFIGGLPADGDDDQVKELLTSFGPLKAFNLVKDSATGLSKGYAFAEYVDINVTDQAIAGLNGFATSRFSLLVQRASVGAKNADYKDDDDKLEHHHHHH |
| binds |  |  | 4H5 mutant (2u2f mutant from Cluster 4) (designed binder) AHKLFIGGLPDYYGDDQVKELLTSFGPLKAFNLVKDSATGLSKGYAFAEYVDINVTDQAIAGLNGRFYGTATLLVQRASVGAKNADYKDDDDKLEHHHHHH |
| binds |  |  | 1H2 mutant (2u2f mutant from Cluster 1) (designed binder) AHKLFIGGLPVDYNDDQVKELLTSFGPLKAFNLVKDSATGLSKGYAFAEYVDINVTDQAIAGLNGSGSRIRALLVQRASVGAKNADYKDDDDKLEHHHHHH |
| binds | binds | binds | C6 mutant (2u2f mutant) (designed binder) AHKLFIGGLPNGDGDDQVKELLTSFGPLKAFNLVKDSATGLSKGYAFAEYVDINVTDQAIAGLNGGYPTDSCLLVQRASVGAKNADYKDDDDKLEHHHHHH |
